Laboratory results published in article PMC6315541, “Nile Tilapia Derived Antimicrobial Peptide TP4 Exerts Antineoplastic Activity Through Microtubule Disruption” (Marine Drugs, 2018).
Results are given in words; binding and its absence hold for the method and conditions named. Binding seen in cells or lysates may run through a third protein. Some entries that bind do so weakly or less than the wild type.

Chains of the proteins cited; added tags and fusions are not shown.
UniProt Q9BQE3: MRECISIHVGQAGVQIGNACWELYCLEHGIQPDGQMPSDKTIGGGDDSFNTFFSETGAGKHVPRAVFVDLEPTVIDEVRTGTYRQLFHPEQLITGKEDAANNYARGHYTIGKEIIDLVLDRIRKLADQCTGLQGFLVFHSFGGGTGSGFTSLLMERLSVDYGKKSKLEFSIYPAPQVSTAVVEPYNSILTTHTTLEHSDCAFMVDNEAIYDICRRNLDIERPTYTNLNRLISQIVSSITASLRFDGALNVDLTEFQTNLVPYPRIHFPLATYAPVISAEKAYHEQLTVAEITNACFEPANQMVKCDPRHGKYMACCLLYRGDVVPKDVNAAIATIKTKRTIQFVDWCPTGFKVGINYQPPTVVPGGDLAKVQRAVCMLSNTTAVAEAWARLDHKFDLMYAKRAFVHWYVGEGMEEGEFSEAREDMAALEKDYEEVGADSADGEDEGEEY

Molecular target: T1, Tilapia piscidin (TP) 4 (Nile tilapia (Oreochromis niloticus))
T1 sequence (peptide): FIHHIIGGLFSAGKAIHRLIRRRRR
Assay: co-IP; A549 cells treated with 10 μg/mL TP4 for 3 h; lysate precipitated with rabbit anti-TP4 antibody and magnetic beads (rabbit IgG as control); blot with α-Tubulin antibody (clone DM1A); only the target purified

binding: binds
Substance: α-Tubulin (from UniProt Q9BQE3 1-449)
